Measurements reported in PubChem BioAssay AID652272 (Drosophila RNAi Screening Center, 2013)

- Test: 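Genome-wide knock-down search for components of Hedgehog signalling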 (primary screen)
- System: Drosophila clone 8 (Cl8) cells
- Reagent: long dsRNA against Drosophila genes
- Measurement: 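Plate reader light from a firefly reporter under a ptc promoter fragment that responds to Hedgehog, with Renilla light as transfection reference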
- Direction: firefly Hh reporter signal: higher = more ptc reporter light; Renilla reference signal: higher = more Renilla control light
- Call rule: 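Called a hit if the two-replicate mean z-score lies below -2 or above +3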
- Meaning of the calls: active = hit: reporter lowered or raised; inactive = not a hit
The deposit covers about 21,000 reagents; this is a random part of those that have a named target and a result. Of all reagents, 503 (2.4%) were called active. 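Raw plate light values, not normalised; calls rest on replicate z-scores that were not deposited; hits include reporter decreases as well as increases.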 Not stated in the record: the amount of reagent, the time to read-out.

| gene | dsRNA | firefly Hh reporter signal, replicate 1 | firefly Hh reporter signal, replicate 2 | firefly Hh reporter signal, replicate 3 | Renilla reference signal, replicate 1 | Renilla reference signal, replicate 2 | Outcome |
| --- | --- | --- | --- | --- | --- | --- | --- |
| fat-spondin | DRSC07617 | 1.32e5 | 74496 | – | 5661 | 2806 | inactive |
| CG33489 | DRSC10588 | 69492 | 52701 | 52183 | 5074 | 3593 | inactive |
| Oct-TyrR (Octopamine-Tyramine receptor) | DRSC11883 | 81065 | 89702 | – | 2786 | 2230 | inactive |
| CG6701 | DRSC07007 | 72005 | 33280 | – | 2624 | 1575 | inactive |
| Secp43 (tRNA Selenocysteine associated protein) | DRSC00454 | 1.02e5 | 53796 | – | 2817 | 7317 | inactive |
| Veneno | DRSC16537 | 56850 | 1.20e5 | – | 1376 | 3280 | inactive |
| beat-Ic (beaten path Ic) | DRSC01524 | 1.08e5 | 2.17e5 | – | 3084 | 9437 | inactive |
| beat-Ic (beaten path Ic) | DRSC03491 | 1.04e5 | 34688 | – | 3147 | 4035 | inactive |
| mts (microtubule star) | DRSC03574 | 41014 | 18534 | – | 2779 | 1800 | active |
| CG8563 | DRSC10996 | 52722 | 35396 | – | 5712 | 2454 | inactive |
| CG9346 | DRSC04542 | 1.16e5 | 88257 | – | 5600 | 3656 | inactive |
| CG33702 | DRSC08986 | 1.07e5 | 2.36e5 | – | 2921 | 9048 | inactive |
| Coa8 (Cytochrome c oxidase assembly factor 8) | DRSC17959 | 1.22e5 | 2.54e5 | – | 4396 | 8057 | inactive |
| Osi11 (Osiris 11) | DRSC12282 | 59398 | 81522 | – | 2075 | 2256 | inactive |
| CG1354 | DRSC17902 | 58969 | 1.67e5 | – | 2173 | 6051 | inactive |
| RnrL (Ribonucleoside diphosphate reductase large subunit) | DRSC03413 | 80756 | 66200 | – | 3619 | 2711 | inactive |
| CG15387 | DRSC00401 | 1.01e5 | 79152 | – | 2520 | 1812 | inactive |
| CG32199 | DRSC09990 | 1.05e5 | – | – | 4395 | 2928 | inactive |
| CG13321 | DRSC06358 | 1.07e5 | 63485 | – | 2880 | 4412 | inactive |
| COX4L (Cytochrome c oxidase subunit 4-like) | DRSC04841 | 78584 | 56656 | – | 1970 | 4909 | inactive |
| Drep3 (DNA fragmentation factor-related protein 3) | DRSC06312 | 3.45e5 | 1.28e5 | 71010 | 3140 | 1990 | inactive |
| Drep3 (DNA fragmentation factor-related protein 3) | DRSC07529 | 6.10e5 | 89382 | – | 4341 | 4341 | inactive |
| CG13295 | DRSC09969 | 77072 | 63136 | – | 6564 | 4412 | inactive |
| Ufl1 (UFM1 specific ligase 1) | DRSC12527 | 1.24e5 | 82921 | – | 4614 | 3243 | inactive |
| Akr1B (Aldo-keto reductase 1B) | DRSC10581 | 91234 | 71413 | – | 4468 | 3244 | inactive |
| CG12498 | DRSC18635 | 91209 | 1.48e5 | – | 3269 | 5957 | inactive |
| CG3817 | DRSC15515 | 1.04e5 | 42608 | – | 5075 | 2573 | inactive |
| CG9231 | DRSC11054 | 1.17e5 | 87308 | – | 4374 | 3088 | inactive |
| pyx (pyrexia) | DRSC08510 | 96443 | 53072 | – | 2668 | 3657 | inactive |
| pyx (pyrexia) | DRSC08511 | 58800 | 29603 | – | 2187 | 2870 | inactive |
| CG9095 | DRSC20150 | 77492 | 2.15e5 | – | 2598 | 8006 | inactive |
| tnc (tenectin) | DRSC14647 | 4.11e5 | 87162 | – | 22384 | 2489 | inactive |

Continued, starting with the last 7 of the part before.
| gene | dsRNA | firefly Hh reporter signal, replicate 1 | firefly Hh reporter signal, replicate 2 | firefly Hh reporter signal, replicate 3 | Renilla reference signal, replicate 1 | Renilla reference signal, replicate 2 | Outcome |
| --- | --- | --- | --- | --- | --- | --- | --- |
| CG12498 | DRSC18635 | 91209 | 1.48e5 | – | 3269 | 5957 | inactive |
| CG3817 | DRSC15515 | 1.04e5 | 42608 | – | 5075 | 2573 | inactive |
| CG9231 | DRSC11054 | 1.17e5 | 87308 | – | 4374 | 3088 | inactive |
| pyx (pyrexia) | DRSC08510 | 96443 | 53072 | – | 2668 | 3657 | inactive |
| pyx (pyrexia) | DRSC08511 | 58800 | 29603 | – | 2187 | 2870 | inactive |
| CG9095 | DRSC20150 | 77492 | 2.15e5 | – | 2598 | 8006 | inactive |
| tnc (tenectin) | DRSC14647 | 4.11e5 | 87162 | – | 22384 | 2489 | inactive |
| Pomp | DRSC03201 | 39287 | 52276 | – | 3037 | 3436 | active |
| toc (toucan) | DRSC00169 | 5.78e5 | 3.00e5 | – | 30757 | 11139 | inactive |
| toc (toucan) | DRSC00171 | 4.42e5 | 1.50e5 | – | 24423 | 6476 | inactive |
| toc (toucan) | DRSC00842 | 60312 | 63041 | – | 2898 | 2912 | inactive |
| shi (shibire) | DRSC20373 | 79958 | 57848 | – | 2096 | 1346 | inactive |
| ben (bendless) | DRSC20310 | 70583 | 73723 | – | 1520 | 1685 | inactive |
| ben (bendless) | DRSC21261 | 1.10e5 | 2.95e5 | – | 3800 | 11992 | inactive |
| BCAS2 | DRSC15693 | 94345 | 91664 | – | 2243 | 2604 | inactive |
| CG34451 | DRSC09388 | 2.72e5 | – | – | 6165 | – | inactive |
| CG34451 | DRSC09389 | 2.99e5 | – | – | 6791 | – | inactive |
| Ugt316A1 (UDP-glycosyltransferase family 316 member A1) | DRSC10376 | 67712 | 1.00e5 | – | 2520 | 3090 | inactive |
| bnk (bottleneck) | DRSC16912 | 74584 | 97778 | – | 3123 | 3613 | inactive |
| Antp (Antennapedia) | DRSC12490 | 75840 | 51393 | – | 2928 | 1929 | inactive |
| aft (adrift) | DRSC07576 | 1.35e5 | 95696 | – | 5432 | 4172 | inactive |
| CtsL1 (Cathepsin L1) | DRSC05462 | 1.01e5 | 2.30e5 | – | 6981 | 9156 | inactive |
| CtsL1 (Cathepsin L1) | DRSC07363 | 58624 | 59942 | – | 2900 | 2532 | inactive |
| CG7029 | DRSC16177 | 83120 | 1.02e5 | – | 3655 | 3556 | inactive |
| Tsp42Ee (Tetraspanin 42Ee) | DRSC05947 | 75755 | 45973 | – | 1776 | 3883 | inactive |
| CG17378 | DRSC02616 | 1.22e5 | 76018 | – | 3302 | 8186 | inactive |
| Gr32a (Gustatory receptor 32a) | DRSC02400 | 1.28e5 | 90951 | – | 4035 | 7418 | inactive |
| Osi13 (Osiris 13) | DRSC12281 | 81024 | 85938 | – | 3125 | 2465 | inactive |
| kin17 | DRSC11890 | 65408 | 99345 | – | 2385 | 3475 | inactive |
| mRRF1 (mitochondrial ribosome recycling factor 1) | DRSC10421 | 1.39e5 | 59323 | – | 5821 | 2593 | inactive |
| lncRNA:CR42735 (retired record) | DRSC00921 | 5.60e5 | 1.64e5 | – | 27691 | 6676 | inactive |
| CG42824 | DRSC13230 | 52259 | 2.67e5 | – | 10212 | 6667 | inactive |
